The supplement of paper PMC12823440, “Inhibitors supercharge kinase turnover through native proteolytic circuits” (Nature, 2025)
Structures can show the parent of a compound that is named as a salt. The list shows a part of the results. The calls rarely recur for the same compound in another form.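 In K562 cells expressing nanoluciferase-fused kinases, luminescence was recorded at 4 h intervals between 2 and 18 h, normalized as percent of control with DMSO at 100% and a positive control at 0%. A significant (2 sigma) signal drop marks a time point as decreased. The authors' rule for a hit is not shown and takes in more than the number of time points.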

By UniProt entry, the sequences of proteins in these tests, tags left out. Where a name states a change or a piece, a line headed by the entry shows the natural chain unless it says otherwise.
UniProt Q6PHR2: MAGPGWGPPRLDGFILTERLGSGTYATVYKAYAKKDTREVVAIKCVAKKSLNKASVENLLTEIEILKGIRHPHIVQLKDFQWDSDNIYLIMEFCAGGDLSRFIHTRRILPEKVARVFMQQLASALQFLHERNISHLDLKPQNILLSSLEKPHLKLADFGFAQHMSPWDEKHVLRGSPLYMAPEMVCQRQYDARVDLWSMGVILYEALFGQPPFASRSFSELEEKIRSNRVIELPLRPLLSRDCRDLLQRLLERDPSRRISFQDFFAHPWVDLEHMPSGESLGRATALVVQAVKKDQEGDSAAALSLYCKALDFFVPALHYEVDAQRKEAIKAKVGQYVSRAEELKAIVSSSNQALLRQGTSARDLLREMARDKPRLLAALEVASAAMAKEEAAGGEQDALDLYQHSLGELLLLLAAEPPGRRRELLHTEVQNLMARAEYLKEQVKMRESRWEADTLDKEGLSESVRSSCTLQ

biological target: ULK3 (UniProt Q6PHR2); assay: kinase-Nluc reporter destabilization hit call (1 = scored as downregulated) (binary); higher = compound decreases kinase abundance; conditions: 2.5 µM; K562; 2-18 h

kinase-Nluc reporter destabilization hit call, inactive:
C=CC(=O)Nc1cc(Nc2nccc(-c3cn(C)c4ccccc34)n2)c(OC)cc1N(C)CCN(C)C [Osimertinib mesylate] 0
Cc1cccc(-c2[nH]c(CNc3ccccc3F)nc2-c2ccc3ncnn3c2)n1 [Vactosertib (Hydrochloride)] 0
CC(C)Oc1ccc(-c2nn([C@@H](C)c3oc4ccc(F)cc4c(=O)c3-c3cccc(F)c3)c3ncnc(N)c23)cc1F [Umbralisib (hydrochloride)] 0
COc1ccc(S(=O)(=O)Nc2ccccc2CN(C)C/C=C/c2ccc(Cl)cc2)cc1 [KN-92 (phosphate)] 0
CN(C)C(=O)c1cc2cnc(Nc3ccc(N4CCNCC4)cn3)nc2n1C1CCCC1 [Ribociclib succinate hydrate] 0
C=CC(=O)Nc1cc2c(Nc3ccc(F)c(Cl)c3)ncnc2cc1C#CC(C)(C)N1CCN(C)CC1 0
Cc1cccc(/C=N/Nc2cc(N3CCOCC3)nc(OCCc3ccccn3)n2)c1 [Apilimod] 0
COc1cc2c(Oc3ccc4[nH]c(C)cc4c3F)ncnc2cc1OCCCN1CCCC1 [Cediranib] 0
Cc1cc(Nc2ncc(Cl)c(Nc3ccccc3S(=O)(=O)C(C)C)n2)c(OC(C)C)cc1C1CCNCC1 [Ceritinib dihydrochloride] 0
Nc1ncnc2c1c(-c1ccc(Oc3ccccc3)cc1)nn2[C@@H]1CCCNC1 0
CNC(=O)c1cc(Oc2ccc(NC(=O)Nc3ccc(Cl)c(C(F)(F)F)c3)c(F)c2)ccn1 [Regorafenib] 0

Already shown: 2 of the compounds above.
kinase-Nluc reporter destabilization hit call, inactive:
CN(C)C(=O)c1cc2cnc(Nc3ccc(N4CCNCC4)cn3)nc2n1C1CCCC1 [Ribociclib succinate hydrate] 0
C=CC(=O)Nc1cc2c(Nc3ccc(F)c(Cl)c3)ncnc2cc1C#CC(C)(C)N1CCN(C)CC1 0
